Drawing on article PMC9947422, this text covers binding for three molecules.

The chains behind the UniProt entries cited, without tags or fusion partners. Residues count along the entry.
UniProt Q8NE86, residues 51-351: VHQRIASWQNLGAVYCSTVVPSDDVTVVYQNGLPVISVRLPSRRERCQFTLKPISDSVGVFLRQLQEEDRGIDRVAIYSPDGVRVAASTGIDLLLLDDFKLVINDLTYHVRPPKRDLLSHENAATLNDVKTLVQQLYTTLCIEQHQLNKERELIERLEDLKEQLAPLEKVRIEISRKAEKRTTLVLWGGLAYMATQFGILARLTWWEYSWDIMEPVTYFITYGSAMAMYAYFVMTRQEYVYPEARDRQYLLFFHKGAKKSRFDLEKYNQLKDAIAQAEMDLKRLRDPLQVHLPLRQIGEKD

Results are given in words; binding and its absence hold for the method and conditions named. Binding seen in cells or lysates may run through a third protein. Some results given as binding are weak or reduced against the parent protein; the word gives no strength. For some of these results: Where a sequence is shown, tags or fusion partners need not be part of it.

In assay [1] the target is T1, Mitochondrial methionyl-tRNA synthetase (MARS2), endogenous in A549 cells (human (endogenous in A549)) (UniProt Q96GW9).
T1 sequence: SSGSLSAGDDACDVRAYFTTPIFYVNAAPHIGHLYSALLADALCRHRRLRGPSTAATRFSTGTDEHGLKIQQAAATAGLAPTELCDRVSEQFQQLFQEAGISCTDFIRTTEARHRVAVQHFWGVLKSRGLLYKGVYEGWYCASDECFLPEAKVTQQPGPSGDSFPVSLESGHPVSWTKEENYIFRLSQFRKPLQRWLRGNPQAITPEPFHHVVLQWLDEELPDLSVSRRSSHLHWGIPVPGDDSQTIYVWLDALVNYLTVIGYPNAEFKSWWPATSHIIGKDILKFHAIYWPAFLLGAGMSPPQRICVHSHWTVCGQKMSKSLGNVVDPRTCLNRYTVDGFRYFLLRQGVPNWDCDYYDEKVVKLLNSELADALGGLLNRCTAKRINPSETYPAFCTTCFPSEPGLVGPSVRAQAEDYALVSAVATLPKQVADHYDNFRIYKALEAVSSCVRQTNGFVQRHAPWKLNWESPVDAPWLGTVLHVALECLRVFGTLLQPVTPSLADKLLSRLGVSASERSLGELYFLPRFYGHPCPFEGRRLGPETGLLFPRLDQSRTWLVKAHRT
The experiment in a line: co-IP; endogenous IP from A549 lysate (25 mM Tris, 15 mM NaCl, 1 mM EDTA, 1% NP-40, 5% glycerol, pH 7.4); anti-MARS2 or anti-MCU antibody overnight at 4 °C, Protein-A Agarose, Western blot. On the technique in general: A western blot detects proteins with antibodies after separation by electrophoresis.

In assay [2] the target is T2, FLAG-MARS2 fusion protein (Flag-tagged MARS2 ORF from pCMV-Tag 2B-MARS2) (human) (UniProt Q96GW9).
T2 sequence: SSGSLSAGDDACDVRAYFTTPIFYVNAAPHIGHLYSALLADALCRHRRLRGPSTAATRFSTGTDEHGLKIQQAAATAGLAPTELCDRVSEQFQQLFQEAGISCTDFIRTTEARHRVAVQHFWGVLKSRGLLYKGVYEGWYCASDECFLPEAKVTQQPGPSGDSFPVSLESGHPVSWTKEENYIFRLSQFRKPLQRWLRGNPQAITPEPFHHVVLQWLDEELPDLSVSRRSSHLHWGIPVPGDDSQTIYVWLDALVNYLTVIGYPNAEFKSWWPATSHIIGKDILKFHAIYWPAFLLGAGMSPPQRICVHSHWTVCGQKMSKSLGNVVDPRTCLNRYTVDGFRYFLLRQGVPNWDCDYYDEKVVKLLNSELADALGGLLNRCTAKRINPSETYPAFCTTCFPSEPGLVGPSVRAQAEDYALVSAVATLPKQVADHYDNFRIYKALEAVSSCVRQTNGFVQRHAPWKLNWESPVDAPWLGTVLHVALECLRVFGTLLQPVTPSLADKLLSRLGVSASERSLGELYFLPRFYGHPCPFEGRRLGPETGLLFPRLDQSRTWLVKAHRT
The experiment in a line: co-IP; exogenous IP: lysate of HEK293T cells overexpressing Flag-MARS2 (150 mM NaCl, 25 mM HEPES-KOH pH 7.5, 0.5% Triton X-100), anti-FLAG M2 affinity gel 2 h at 4 °C; Western blot with anti-MCU antibody; beads also treated with L-methionine, L-histidine or L-homocysteine (0, 1.25 and 2.5 mM) for 2 h at 4 °C.

For assay [3], the target named is T2, FLAG-MARS2 fusion protein (Flag-tagged MARS2 ORF from pCMV-Tag 2B-MARS2) (human). The experiment in a line: FRET or BRET; bead-associated FLAG-MARS2-MCU immunocomplex from HEK293T lysate labelled with secondary antibodies conjugated with Alexa Fluor 488 (MARS2) and Alexa Fluor 555 (MCU); 488 nm excitation, emission ratio 520 nm/570 nm; with L-methionine, L-histidine or L-homocysteine (0, 1.25 and 2.5 mM). A general note: In BRET a luciferase serves as donor, and the signal depends on an acceptor being close.

The target of assay [4] is Mitochondrial calcium uniporter (MCU), endogenous in A549 cells (human (endogenous in A549)) (UniProt Q8NE86). Kind of assay: co-IP; endogenous IP from A549 lysate (25 mM Tris, 15 mM NaCl, 1 mM EDTA, 1% NP-40, 5% glycerol, pH 7.4); anti-MARS2 or anti-MCU antibody overnight at 4 °C, Protein-A Agarose, Western blot.

Consider “Mitochondrial calcium uniporter (MCU), endogenous in A549 cells (from UniProt Q8NE86 51-351)”, for which the binding entry in assay [1] was “binds”.
In the case of “Mitochondrial calcium uniporter (MCU), endogenous in HEK293T cells (from UniProt Q8NE86 51-351)”, the binding entry in assay [2] and in assay [3] was “binds” throughout.

B1: Mitochondrial methionyl-tRNA synthetase (MARS2), endogenous in A549 cells (protein, UniProt Q96GW9 30-593)
chain: SSGSLSAGDDACDVRAYFTTPIFYVNAAPHIGHLYSALLADALCRHRRLRGPSTAATRFSTGTDEHGLKIQQAAATAGLAPTELCDRVSEQFQQLFQEAGISCTDFIRTTEARHRVAVQHFWGVLKSRGLLYKGVYEGWYCASDECFLPEAKVTQQPGPSGDSFPVSLESGHPVSWTKEENYIFRLSQFRKPLQRWLRGNPQAITPEPFHHVVLQWLDEELPDLSVSRRSSHLHWGIPVPGDDSQTIYVWLDALVNYLTVIGYPNAEFKSWWPATSHIIGKDILKFHAIYWPAFLLGAGMSPPQRICVHSHWTVCGQKMSKSLGNVVDPRTCLNRYTVDGFRYFLLRQGVPNWDCDYYDEKVVKLLNSELADALGGLLNRCTAKRINPSETYPAFCTTCFPSEPGLVGPSVRAQAEDYALVSAVATLPKQVADHYDNFRIYKALEAVSSCVRQTNGFVQRHAPWKLNWESPVDAPWLGTVLHVALECLRVFGTLLQPVTPSLADKLLSRLGVSASERSLGELYFLPRFYGHPCPFEGRRLGPETGLLFPRLDQSRTWLVKAHRT
Turning to B1, in assay [4], the binding result is listed as “binds”.
